{
  "source": "PubChem BioAssay (NCATS)",
  "note": "The list shows a part of the results. Further columns of the screen follow, without active or inactive calls. Most of these compounds were active or inconclusive in the main read-out, so they are no random draw. The note in brackets gives the kind of curve behind each potency; many fits are weak.",
  "data": [
    {"experiment": "S16 Schwann cell PMP22 intronic element beta-lactamase assay (AID 624044)", "details": "S16 rat Schwann cells, PMP22 element beta-lactamase FRET, 24 h; measured here: 460 nm blue channel", "how_it_was_run": "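Beta-lactamase reporter under a PMP22 intronic regulatory element in stable S16 rat Schwann cells; 24 h compound exposure. 460 nm blue signal normalized between DMSO (0%) and potassium clavulanate, with 535 nm FRET tracking viability; curves classed by r2 and response.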", "values": [
      {"smiles": "O=C(O)Cc1ccc(CCNS(=O)(=O)c2ccc(Cl)cc2)cc1", "AC50": "0.141 µM [falling, full curve, poor fit]"},
      {"smiles": "CN1CCCC(CN2c3ccccc3Sc3ccccc32)C1", "note": "(stereo unspecified)", "AC50": "0.0562 µM [falling, full curve, poor fit]"},
      {"smiles": "COc1cc([C@H]2c3cc4c(cc3[C@@H](O[C@H]3O[C@H]5CO[C@@H](C)O[C@H]5[C@@H](O)[C@@H]3O)[C@@H]3COC(=O)[C@H]23)OCO4)cc(OC)c1O", "AC50": "3.98 µM [falling, full curve]"},
      {"smiles": "O=C(O)CCn1c2c(c3ccccc31)C[C@H](NS(=O)(=O)c1ccc(F)cc1)CC2", "AC50": "0.0224 µM [falling, full curve]"},
      {"smiles": "CC1C(=O)C(=O)C=CN1C", "note": "(stereo unspecified)", "AC50": "12.6 µM [falling, single point]"},
      {"smiles": "CC(=O)O[C@@]12CO[C@@H]1C[C@H](O)[C@@]1(C)C(=O)[C@H](O)C3=C(C)[C@@H](OC(=O)C(O)[C@@H](NC(=O)OC(C)(C)C)c4ccccc4)C[C@@](O)([C@@H](OC(=O)c4ccccc4)[C@H]21)C3(C)C", "note": "(stereo partly specified)", "AC50": "0.158 µM [falling, full curve, poor fit]"},
      {"smiles": "CC(C)c1ncc([N+](=O)[O-])n1C", "AC50": "1.78 µM [falling, full curve, poor fit]"},
      {"smiles": "FC(F)OC(Cl)C(F)(F)F", "note": "(stereo unspecified)", "AC50": "9.99 µM [falling, full curve, poor fit]"},
      {"smiles": "COc1cccc2c1C(=O)c1c(O)c3c(c(O)c1C2=O)C[C@@](O)(C(=O)CO)C[C@@H]3OC1CC(N)C(O)C(C)O1", "note": "(stereo partly specified)", "AC50": "0.501 µM [falling, full curve]"},
      {"smiles": "CN1C(CCl)Nc2cc(Cl)c(S(N)(=O)=O)cc2S1(=O)=O", "note": "(stereo unspecified)", "AC50": "25.1 µM [falling, single point]"},
      {"smiles": "O=C(O)c1cc(=O)c2ccccc2o1", "AC50": "25.1 µM [rising, single point]"},
      {"smiles": "NC[C@@H]1O[C@H](O[C@H]2[C@H](O)[C@H](O[C@@H]3O[C@H](CO)[C@@H](O)[C@H](N)[C@@H]3O)[C@@H](N)C[C@H]2N)[C@@H](O)[C@H](O)[C@@H]1O", "AC50": "6 µM [falling, partial curve, poor fit]"},
      {"smiles": "NS(=O)(=O)c1cc(C(=O)O)cc(N2CCCC2)c1Oc1ccccc1", "AC50": "0.0848 µM [falling, full curve, poor fit]"},
      {"smiles": "CCCCC(=O)OCC(=O)[C@]1(O)Cc2c(O)c3c(c(O)c2[C@H](OC2CC(NC(=O)C(F)(F)F)C(O)C(C)O2)C1)C(=O)c1c(OC)cccc1C3=O", "note": "(stereo partly specified)", "AC50": "2.51 µM [falling, full curve]"},
      {"smiles": "Nc1cccc2c1CN(C1CCC(=O)NC1=O)C2=O", "note": "(stereo unspecified)", "AC50": "25.1 µM [falling, single point]"},
      {"smiles": "CCOC(=O)c1c(N)sc2c1CCN(Cc1ccccc1)C2", "AC50": "0.199 µM [falling, full curve, poor fit]"},
      {"smiles": "COc1cc2c(cc1O)CCN[C@@]21CS[C@H]2c3c(OC(C)=O)c(C)c4c(c3C(COC1=O)N1C2C2c3c(cc(C)c(OC)c3O)CC([C@@H]1O)N2C)OCO4", "note": "(stereo partly specified)", "AC50": "0.00707 µM [falling, full curve, poor fit]"},
      {"smiles": "O=C(OC[C@@H](O)CO)c1ccccc1Nc1ccnc2cc(Cl)ccc12", "AC50": "9.51 µM [rising, partial curve, poor fit]"},
      {"smiles": "CC[C@@]1(O)C[C@H](O[C@H]2C[C@@H](N(C)C)[C@@H](O[C@H]3C[C@@H](O)[C@@H](O[C@H]4CCC(=O)[C@@H](C)O4)[C@@H](C)O3)[C@@H](C)O2)c2c(cc3c(c2O)C(=O)c2c(O)cccc2C3=O)[C@H]1C(=O)OC", "AC50": "0.251 µM [falling, full curve]"},
      {"smiles": "Clc1ccccc1-c1nc(-c2ccncc2)no1", "AC50": "7.07 µM [falling, partial curve, poor fit]"},
      {"smiles": "O=c1[nH]c(=O)n(C2C[C@H](O)[C@@H](CO)O2)cc1C(F)(F)F", "note": "(stereo partly specified)", "AC50": "1.26 µM [falling, full curve, poor fit]"},
      {"smiles": "C[C@@H]1COc2c(N3CCN(C)CC3)c(F)cc3c(=O)c(C(=O)O)cn1c23", "AC50": "3.55 µM [falling, partial curve, poor fit]"},
      {"smiles": "CCOC(=O)n1ccn(C)c1=S", "AC50": "0.00755 µM [falling, full curve, poor fit]"},
      {"smiles": "CCC(C)C1NC(=O)C(Cc2ccc(O)cc2)NC(=O)C(N)CSSCC(C(=O)N2CCCC2C(=O)NC(CC(C)C)C(=O)NCC(N)=O)NC(=O)C(CC(N)=O)NC(=O)C(CCC(N)=O)NC1=O", "note": "(stereo unspecified)", "AC50": "1.41 µM [falling, full curve, poor fit]"},
      {"smiles": "C=CC(C)(O)CC/C=C(\\C)CCC=C(C)C", "note": "(stereo unspecified)", "AC50": "7.07 µM [falling, full curve]"},
      {"smiles": "O=C(O)[C@H](O)[C@@H](O)[C@H](O)[C@H](O)CO", "AC50": "14.1 µM [falling, partial curve, poor fit]"},
      {"smiles": "C#C[C@]1(O)CC[C@H]2[C@H]3[C@H](CC[C@@]21C)C1=C(CC(=O)CC1)C[C@@H]3C", "AC50": "14.1 µM [falling, single point]"},
      {"smiles": "CCOC(=O)OC(C)OC1=C(C(=O)Nc2ccccn2)N(C)S(=O)(=O)c2ccccc21", "note": "(stereo unspecified)", "AC50": "6.31 µM [falling, full curve]"},
      {"smiles": "CCCCCCCCCCCC(=O)OCC(O)C1OCC(O)C1O", "note": "(stereo unspecified)", "AC50": "3.98 µM [falling, full curve, poor fit]"},
      {"smiles": "CN(C)CCC[C@@]1(c2ccc(F)cc2)OCc2cc(C#N)ccc21", "AC50": "0.00501 µM [falling, full curve, poor fit]"},
      {"smiles": "CN=C1C=CC(=C(c2ccc(N(C)C)cc2)c2ccc(N(C)C)cc2)C=C1", "AC50": "0.999 µM [falling, full curve, poor fit]"},
      {"smiles": "CC(C)[N+](C)(C)CC(O)COc1cccc2ccccc12", "note": "(stereo unspecified)", "AC50": "0.158 µM [falling, full curve, poor fit]"},
      {"smiles": "CCCCCCCCCCCC[n+]1ccc2ccccc2c1", "AC50": "17.8 µM [falling, partial curve]"},
      {"smiles": "OCC1(CO)COC(C(Cl)(Cl)Cl)OC1", "AC50": "15.8 µM [falling, single point]"},
      {"smiles": "C=C1C(=CC=C2CCC[C@@]3(C)[C@@H]2CC[C@H]3[C@H](C)CCCC(C)C)C[C@@H](O)C[C@@H]1O", "AC50": "7.07 µM [falling, partial curve, poor fit]"},
      {"smiles": "C#C[C@]1(O)CC[C@@H]2[C@H]3CCC4=CC(=O)CC[C@H]4[C@H]3C(=C)C[C@@]21CC", "AC50": "5.62 µM [falling, full curve]"}
    ]}
  ]
}
